Patent EP4685142A1, “TRIAZINE COMPOUND AND USE THEREOF” (Chengdu Zenitar Biomedical Technology Co., Ltd., priority 2023, dated 2024)

Assay: In vivo brain-to-plasma ratio in mice
[1] = male, mouse, brain/plasma, po, 10 mg/kg

Brain (1 h, male mice, oral 10 mg/kg): 56 ng/g
Kp at 1 h [1]: 0.02
Kp at 6 h [1]: 0.06
concentration at 1 h (male, mouse, plasma, po, 10 mg/kg): 2330 ng/mL
Structure (SMILES): Cc1c(N[C@@H]2CCCC[C@H]2O)nnc(-c2ccc(C(F)(F)F)cc2O)c1C [Ref-1, reference compound]
